# Laboratory results: PubChem BioAssay AID256 (DTP/NCI, 2004)
# The list does not hold the whole screen: it gathers some chemical classes. Not every dose and run of a compound is shown. T/C: endpoint of the treated group in % of that of the vehicle group. Some entries give survivors of the animals treated and no T/C: the source holds a T/C of zero for them, seemingly a mark for toxic or unscored doses. Some doses without a T/C left all or most animals alive at the check, yet need not have been tolerated: the source hardly ever lists a survival T/C far under the control, and the zero likely stands for such cases as well. Survivors were counted at the toxicity check, usually on the fifth day, unless a day is given; later deaths do not show. Schedule codes are those of the source, taken here to give the interval after Q, in days (D) or hours (H), and the number of doses after X. Some doses were run more than once; their values stand side by side, smallest first. Some schedule codes hold Z or #, which are not explained here. For survival time, the PubChem record calls one and a half times the control and up active, and a quarter to a half above the control has no call in these data; cut-offs in other NCI protocols can differ. Some T/C values are followed by the survivors on the day toxicity was checked, most often the fifth; without a count or a note in brackets, all were alive then.
# System: CD2F1 mice, L1210 leukemia ip, survival T/C
# Assay: NCI In Vivo Anticancer Drug Screen. Data for tumor model L1210 Leukemia (intraperitoneal) in CD2F1 (CDF1) mice
# Conditions: T/C endpoint: mean survival time, higher T/C = longer survival
# In short: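 Transplantable tumor in mice; compound-treated vs vehicle-treated groups. Read-out = treated/control ratio of the measured endpoint.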
# [1] = dose: 100.0 mg/kg/injection, schedule: Q01DX009 (ip), vehicle: saline
# [2] = dose: 100.0 mg/kg/injection, schedule: Q04DX002 (ip), vehicle: saline with Tween-80
# [3] = dose: 200.0 mg/kg/injection, schedule: Q04DX002 (ip), vehicle: saline with Tween-80
# [4] = dose: 25.0 mg/kg/injection, schedule: Q04DX003 (ip), vehicle: saline
# [5] = dose: 50.0 mg/kg/injection, schedule: Q04DX003 (ip), vehicle: saline
# [6] = dose: 100.0 mg/kg/injection, schedule: Q04DX003 (ip), vehicle: saline
structure (smiles),measurement,setting,value
ClP(c1ccccc1)c1ccccc1,T/C,"dose: 100.0 mg/kg/injection, schedule: Q04DX003 (ip), vehicle: saline with Tween-80",97 % of control
same,T/C,"dose: 200.0 mg/kg/injection, schedule: Q04DX003 (ip), vehicle: saline with Tween-80",101 % of control
same,T/C,"dose: 400.0 mg/kg/injection, schedule: Q04DX003 (ip), vehicle: saline with Tween-80",98 % of control
COP(=O)(OC)N(CCCl)CCCl,T/C,[1],118 % of control [5 of 6 alive]
same,survivor count,"dose: 200.0 mg/kg/injection, schedule: Q01DX009 (ip), vehicle: saline",4 of 6
CC12CCCC1(OO)OOC2=O (stereo unspecified),T/C,"dose: 2.5 mg/kg/injection, schedule: Q01DX009 (ip), vehicle: saline with Tween-80",102 % of control
same,T/C,"dose: 5.0 mg/kg/injection, schedule: Q01DX001 (ip), vehicle: saline with Tween-80",91 % of control
same,T/C,"dose: 5.0 mg/kg/injection, schedule: Q01DX009 (ip), vehicle: saline with Tween-80",93 % of control
same,T/C,"dose: 10.0 mg/kg/injection, schedule: Q01DX001 (ip), vehicle: saline with Tween-80",93 % of control
same,T/C,"dose: 10.0 mg/kg/injection, schedule: Q01DX009 (ip), vehicle: saline with Tween-80",94 % of control [4 of 6 alive]
same,survivor count,"dose: 20.0 mg/kg/injection, schedule: Q01DX001 (ip), vehicle: saline with Tween-80",0 of 6
same,survivor count,"dose: 100.0 mg/kg/injection, schedule: Q01DX001 (ip), vehicle: saline with Tween-80",0 of 6
same,survivor count,"dose: 200.0 mg/kg/injection, schedule: Q01DX001 (ip), vehicle: saline with Tween-80",0 of 6
same,survivor count,"dose: 400.0 mg/kg/injection, schedule: Q01DX001 (ip), vehicle: saline with Tween-80",0 of 6
[N-]=[N+]=NS(=O)(=O)c1ccc([N+](=O)[O-])cc1,T/C,"dose: 100.0 mg/kg/injection, schedule: Q04DX002 (ip), vehicle: Klucel (hydroxypropylcellulose) (HPC)",96 % of control
same,T/C,"dose: 200.0 mg/kg/injection, schedule: Q04DX002 (ip), vehicle: Klucel (hydroxypropylcellulose) (HPC)",100 % of control [2 of 3 alive]
same,T/C,"dose: 400.0 mg/kg/injection, schedule: Q04DX002 (ip), vehicle: Klucel (hydroxypropylcellulose) (HPC)",96 % of control
NC(=Nc1ccccc1)C(N)=Nc1ccccc1.O=[N+]([O-])c1cc([N+](=O)[O-])c(O)c([N+](=O)[O-])c1,T/C,"dose: 25.0 mg/kg/injection, schedule: Q04DX002 (ip), vehicle: saline with Tween-80",96 % of control
same,T/C,"dose: 50.0 mg/kg/injection, schedule: Q04DX002 (ip), vehicle: saline with Tween-80",88 % of control
same,T/C,[2],100 % of control
same,T/C,[3],96 % of control
COP1OCCO1,T/C,"dose: 75.0 mg/kg/injection, schedule: Q01DX009 (ip), vehicle: saline",101 % of control [5 of 6 alive]
same,T/C,"dose: 150.0 mg/kg/injection, schedule: Q01DX009 (ip), vehicle: saline",96 % of control
same,survivor count,"dose: 300.0 mg/kg/injection, schedule: Q01DX009 (ip), vehicle: saline",2 of 6
NC1CCCCC1.O=P(O)(N(CCCl)CCCl)N1CCCCC1,T/C,"dose: 128.0 mg/kg/injection, schedule: Q01DX Z (ip), vehicle: saline",113 % of control
same,survivor count,"dose: 256.0 mg/kg/injection, schedule: Q01DX Z (ip), vehicle: saline",1 of 6
same,survivor count,"dose: 512.0 mg/kg/injection, schedule: Q01DX Z (ip), vehicle: saline",0 of 6
N#CCCOP(=O)(N(CCCl)CCCl)N1CC1 (stereo unspecified),T/C,"dose: 7.8 mg/kg/injection, schedule: Q01DX001 (ip), vehicle: Klucel (hydroxypropylcellulose) (HPC)",90 % of control
same,T/C,"dose: 12.5 mg/kg/injection, schedule: Q01DX009 (ip), vehicle: Klucel (hydroxypropylcellulose) (HPC)",93 % of control
same,T/C,"dose: 15.6 mg/kg/injection, schedule: Q01DX001 (ip), vehicle: Klucel (hydroxypropylcellulose) (HPC)",96 % of control
same,T/C,"dose: 25.0 mg/kg/injection, schedule: Q01DX009 (ip), vehicle: Klucel (hydroxypropylcellulose) (HPC)",101 % of control
same,T/C,"dose: 31.3 mg/kg/injection, schedule: Q01DX001 (ip), vehicle: Klucel (hydroxypropylcellulose) (HPC)",95 % of control
same,T/C,"dose: 50.0 mg/kg/injection, schedule: Q01DX009 (ip), vehicle: Klucel (hydroxypropylcellulose) (HPC)",108 % of control
same,T/C,"dose: 62.5 mg/kg/injection, schedule: Q01DX001 (ip), vehicle: Klucel (hydroxypropylcellulose) (HPC)",102 % of control
same,T/C,"dose: 100.0 mg/kg/injection, schedule: Q01DX009 (ip), vehicle: Klucel (hydroxypropylcellulose) (HPC)",119 % of control
same,T/C,"dose: 125.0 mg/kg/injection, schedule: Q01DX001 (ip), vehicle: Klucel (hydroxypropylcellulose) (HPC)",104 and 120 % of control
same,T/C,"dose: 200.0 mg/kg/injection, schedule: Q01DX009 (ip), vehicle: Klucel (hydroxypropylcellulose) (HPC)",121 % of control [4 of 6 alive]
same,T/C,"dose: 200.0 mg/kg/injection, schedule: Q01DX009 (ip), vehicle: water",86 % of control
same,T/C,"dose: 250.0 mg/kg/injection, schedule: Q01DX001 (ip), vehicle: Klucel (hydroxypropylcellulose) (HPC)",113 % of control
same,survivor count,"dose: 300.0 mg/kg/injection, schedule: Q01DX009 (ip), vehicle: water",6 of 6
same,T/C,"dose: 400.0 mg/kg/injection, schedule: Q01DX009 (ip), vehicle: water",102 % of control
same,survivor count,"dose: 500.0 mg/kg/injection, schedule: Q01DX001 (ip), vehicle: Klucel (hydroxypropylcellulose) (HPC)",0 of 6
same,survivor count,"dose: 1000.0 mg/kg/injection, schedule: Q01DX001 (ip), vehicle: Klucel (hydroxypropylcellulose) (HPC)",0 of 6
C[As](C)SC1OC(CO)C(O)C(O)C1O (stereo unspecified),T/C,"dose: 3.12 mg/kg/injection, schedule: Q01DX009 (ip), vehicle: saline",90 and 101 % of control
same,T/C,"dose: 6.25 mg/kg/injection, schedule: Q01DX009 (ip), vehicle: saline",95 and 104 % of control
same,T/C,"dose: 12.5 mg/kg/injection, schedule: Q01DX009 (ip), vehicle: saline",96 and 97 % of control
same,T/C,"dose: 25.0 mg/kg/injection, schedule: Q01DX009 (ip), vehicle: saline, evaluated on day 20",107 % of control
same,T/C,"dose: 25.0 mg/kg/injection, schedule: Q01DX009 (ip), vehicle: saline, evaluated on day 30",103 and 109 % of control
same,T/C,[4],97 % of control
same,T/C,"dose: 50.0 mg/kg/injection, schedule: Q01DX009 (ip), vehicle: saline, evaluated on day 20",108 % of control
same,T/C,"dose: 50.0 mg/kg/injection, schedule: Q01DX009 (ip), vehicle: saline, evaluated on day 30",104 and 109 % of control
same,T/C,[5],97 % of control
same,survivor count,[1],1 of 6 and 4 of 6
same,T/C,[6],100 % of control
CC(C)NCCN(C(=N)C(=N)N(CCNC(C)C)C(C)C)C(C)C.O=[N+]([O-])c1cc([N+](=O)[O-])c(O)c([N+](=O)[O-])c1,T/C,[2],93 % of control
same,T/C,[3],89 % of control
same,survivor count,"dose: 400.0 mg/kg/injection, schedule: Q04DX002 (ip), vehicle: saline with Tween-80",1 of 3
CNNCCCl,T/C,"dose: 3.12 mg/kg/injection, schedule: Q01DX001 (ip), vehicle: saline",103 % of control
same,T/C,"dose: 3.12 mg/kg/injection, schedule: Q04DX003 (ip), vehicle: saline",103 % of control
same,T/C,"dose: 6.25 mg/kg/injection, schedule: Q01DX001 (ip), vehicle: saline",110 % of control
same,T/C,"dose: 6.25 mg/kg/injection, schedule: Q04DX003 (ip), vehicle: saline",115 % of control
same,T/C,"dose: 12.5 mg/kg/injection, schedule: Q01DX001 (ip), vehicle: saline",109 % of control
same,T/C,"dose: 12.5 mg/kg/injection, schedule: Q04DX003 (ip), vehicle: saline",115 % of control
same,T/C,"dose: 25.0 mg/kg/injection, schedule: Q01DX001 (ip), vehicle: saline",113 [4 of 6 alive] and 116 % of control [5 of 6 alive]
same,T/C,[4],90 [5 of 6 alive] and 103 % of control
same,survivor count,"dose: 50.0 mg/kg/injection, schedule: Q01DX001 (ip), vehicle: saline",0 of 6
same,survivor count,[5],1 of 6
same,survivor count,"dose: 100.0 mg/kg/injection, schedule: Q01DX001 (ip), vehicle: saline",0 of 6
same,survivor count,[6],0 of 6
same,survivor count,"dose: 200.0 mg/kg/injection, schedule: Q01DX001 (ip), vehicle: saline",0 of 6
same,survivor count,"dose: 200.0 mg/kg/injection, schedule: Q04DX003 (ip), vehicle: saline",0 of 6
